Assay results: PMC6579465
No constants are given. Whether binding was seen depends on the method and setting. Binding seen in cells or lysates may run through a third protein. These calls come from enrichment with a bait or labelling near it, and not all partners need be listed. No binding means not detected with the bait.

Protein sequences, listed by entry. Tags and fused reporters are not part of them.
UniProt Q62717: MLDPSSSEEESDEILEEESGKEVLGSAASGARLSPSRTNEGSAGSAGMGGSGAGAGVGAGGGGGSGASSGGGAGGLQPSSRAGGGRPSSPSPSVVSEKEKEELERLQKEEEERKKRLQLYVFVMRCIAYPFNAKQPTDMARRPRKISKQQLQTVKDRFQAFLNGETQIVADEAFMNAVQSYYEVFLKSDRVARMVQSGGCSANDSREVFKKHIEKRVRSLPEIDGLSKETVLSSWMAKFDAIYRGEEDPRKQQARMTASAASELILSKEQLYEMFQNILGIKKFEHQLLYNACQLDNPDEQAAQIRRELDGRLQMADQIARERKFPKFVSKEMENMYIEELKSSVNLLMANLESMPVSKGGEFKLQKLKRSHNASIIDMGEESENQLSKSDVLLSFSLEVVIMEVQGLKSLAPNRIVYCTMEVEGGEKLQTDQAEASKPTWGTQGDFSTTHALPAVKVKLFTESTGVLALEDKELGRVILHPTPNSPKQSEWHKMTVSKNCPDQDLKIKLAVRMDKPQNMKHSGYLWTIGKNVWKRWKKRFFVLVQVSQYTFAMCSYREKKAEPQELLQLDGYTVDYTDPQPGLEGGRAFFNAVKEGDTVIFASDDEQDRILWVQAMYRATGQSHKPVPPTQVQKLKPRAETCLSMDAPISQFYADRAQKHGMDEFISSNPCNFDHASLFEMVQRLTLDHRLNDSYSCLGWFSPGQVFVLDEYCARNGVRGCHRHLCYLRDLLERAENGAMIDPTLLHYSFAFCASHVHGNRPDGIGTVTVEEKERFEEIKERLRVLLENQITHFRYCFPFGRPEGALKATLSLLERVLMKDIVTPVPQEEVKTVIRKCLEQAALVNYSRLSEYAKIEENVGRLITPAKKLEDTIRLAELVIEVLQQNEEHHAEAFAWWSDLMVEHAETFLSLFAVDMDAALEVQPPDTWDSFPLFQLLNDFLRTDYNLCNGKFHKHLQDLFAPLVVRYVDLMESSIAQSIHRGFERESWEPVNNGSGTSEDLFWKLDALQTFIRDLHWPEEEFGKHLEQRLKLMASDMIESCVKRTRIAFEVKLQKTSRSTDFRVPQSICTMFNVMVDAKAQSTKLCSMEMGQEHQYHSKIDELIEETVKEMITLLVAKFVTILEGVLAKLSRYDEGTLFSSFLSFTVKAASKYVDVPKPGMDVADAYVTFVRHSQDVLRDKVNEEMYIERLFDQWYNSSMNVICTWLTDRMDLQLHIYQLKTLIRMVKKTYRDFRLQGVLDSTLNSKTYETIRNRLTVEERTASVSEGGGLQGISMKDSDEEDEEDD
UniProt Q9ERH3: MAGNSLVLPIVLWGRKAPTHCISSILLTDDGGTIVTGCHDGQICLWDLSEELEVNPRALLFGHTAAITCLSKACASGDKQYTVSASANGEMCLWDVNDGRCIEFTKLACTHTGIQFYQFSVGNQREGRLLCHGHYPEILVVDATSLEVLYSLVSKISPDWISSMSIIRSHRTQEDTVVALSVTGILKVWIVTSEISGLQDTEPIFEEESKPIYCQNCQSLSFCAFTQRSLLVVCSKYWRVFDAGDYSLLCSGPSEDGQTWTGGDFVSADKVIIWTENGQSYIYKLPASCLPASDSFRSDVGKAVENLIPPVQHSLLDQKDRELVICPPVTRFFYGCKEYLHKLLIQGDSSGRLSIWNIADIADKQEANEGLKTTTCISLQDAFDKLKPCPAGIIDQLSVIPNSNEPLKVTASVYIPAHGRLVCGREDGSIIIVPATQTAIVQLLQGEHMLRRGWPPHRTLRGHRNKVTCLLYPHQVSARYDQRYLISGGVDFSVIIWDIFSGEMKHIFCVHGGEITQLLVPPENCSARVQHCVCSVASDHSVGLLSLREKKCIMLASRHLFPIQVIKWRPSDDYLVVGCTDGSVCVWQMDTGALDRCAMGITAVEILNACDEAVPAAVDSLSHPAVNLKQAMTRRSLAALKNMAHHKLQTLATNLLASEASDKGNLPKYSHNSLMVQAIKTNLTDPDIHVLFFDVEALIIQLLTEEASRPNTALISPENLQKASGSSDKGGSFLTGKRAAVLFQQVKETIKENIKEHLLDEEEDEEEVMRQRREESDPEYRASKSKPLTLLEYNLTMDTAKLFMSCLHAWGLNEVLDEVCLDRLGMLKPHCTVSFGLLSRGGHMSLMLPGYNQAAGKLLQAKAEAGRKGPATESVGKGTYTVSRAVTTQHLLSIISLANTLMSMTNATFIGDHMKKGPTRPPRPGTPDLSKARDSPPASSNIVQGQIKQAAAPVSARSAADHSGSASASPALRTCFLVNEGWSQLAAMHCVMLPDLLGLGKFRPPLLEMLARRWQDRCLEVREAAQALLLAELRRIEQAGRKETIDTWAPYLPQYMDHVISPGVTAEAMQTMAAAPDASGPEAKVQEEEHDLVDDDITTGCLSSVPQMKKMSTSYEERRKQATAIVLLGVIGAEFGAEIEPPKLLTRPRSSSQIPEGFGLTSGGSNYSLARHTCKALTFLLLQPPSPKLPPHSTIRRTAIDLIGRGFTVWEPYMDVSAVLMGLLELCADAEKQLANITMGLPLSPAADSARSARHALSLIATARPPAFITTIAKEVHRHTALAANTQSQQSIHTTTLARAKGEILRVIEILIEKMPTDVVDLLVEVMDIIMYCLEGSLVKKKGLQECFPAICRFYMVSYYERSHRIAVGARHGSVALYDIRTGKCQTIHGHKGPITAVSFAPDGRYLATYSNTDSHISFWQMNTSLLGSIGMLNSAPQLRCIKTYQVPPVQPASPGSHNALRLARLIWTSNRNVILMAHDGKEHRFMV

Biological target: CAPS1 (calcium-dependent activator protein for secretion, CADPS) (rat (endogenous in rat brain)) (UniProt Q62717)
Assay: affinity purification with mass spectrometry; CAPS peptide antibody on Protein A Dynabeads; rat brain crude synaptosomal membranes solubilized in 1% Triton X-100; 1 h at 4 °C; washes in PBS with 1% Triton X-100; elution with the CAPS 21-mer peptide; LC-MS/MS of the whole eluate; control nonimmune rabbit IgGs

Row | binding | Substance
1 | no binding | Rab3-GEF (from UniProt O08873 1-1602)
2 | binds | Rabconnectin3β (Rbcn3β) / WD repeat domain 7 (WDR7) (from UniProt Q9ERH3 1-1488)
